This is one part of the list. Most values lie at the level of the controls, where differences are scatter.
These targets were tested with CN[C@@H]1C[C@H]2O[C@@](C)([C@@H]1OC)n1c3ccccc3c3c4c(c5c6ccccc6n2c5c31)C(=O)NC4 [staurosporine] (assay: log2 fold change of pooled soluble protein (PISA), ligand vs vehicle (log2 ratio); higher = more thermally stabilized). Conditions: ligand concentration: 20 uM; assay format: PISA pool 52.9/55.5/58.6 C.

Amino acid sequences for entries named in this document (tags omitted). A change or cut given only in a name is not applied to a line headed by its entry.
UniProt O35609: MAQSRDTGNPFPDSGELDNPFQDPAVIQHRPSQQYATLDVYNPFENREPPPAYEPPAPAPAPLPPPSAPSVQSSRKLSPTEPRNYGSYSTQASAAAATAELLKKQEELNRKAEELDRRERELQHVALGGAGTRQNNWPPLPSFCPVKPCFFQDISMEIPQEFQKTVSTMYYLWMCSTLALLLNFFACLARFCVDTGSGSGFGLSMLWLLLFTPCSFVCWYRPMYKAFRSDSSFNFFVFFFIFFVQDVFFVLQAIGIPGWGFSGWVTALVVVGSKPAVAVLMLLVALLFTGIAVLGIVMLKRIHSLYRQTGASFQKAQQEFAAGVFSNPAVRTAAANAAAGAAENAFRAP
UniProt O70493: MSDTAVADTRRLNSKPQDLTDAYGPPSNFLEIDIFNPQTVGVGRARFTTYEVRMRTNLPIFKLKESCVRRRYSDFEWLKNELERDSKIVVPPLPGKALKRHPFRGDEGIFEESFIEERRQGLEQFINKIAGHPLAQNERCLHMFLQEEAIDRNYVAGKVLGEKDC
UniProt O35114: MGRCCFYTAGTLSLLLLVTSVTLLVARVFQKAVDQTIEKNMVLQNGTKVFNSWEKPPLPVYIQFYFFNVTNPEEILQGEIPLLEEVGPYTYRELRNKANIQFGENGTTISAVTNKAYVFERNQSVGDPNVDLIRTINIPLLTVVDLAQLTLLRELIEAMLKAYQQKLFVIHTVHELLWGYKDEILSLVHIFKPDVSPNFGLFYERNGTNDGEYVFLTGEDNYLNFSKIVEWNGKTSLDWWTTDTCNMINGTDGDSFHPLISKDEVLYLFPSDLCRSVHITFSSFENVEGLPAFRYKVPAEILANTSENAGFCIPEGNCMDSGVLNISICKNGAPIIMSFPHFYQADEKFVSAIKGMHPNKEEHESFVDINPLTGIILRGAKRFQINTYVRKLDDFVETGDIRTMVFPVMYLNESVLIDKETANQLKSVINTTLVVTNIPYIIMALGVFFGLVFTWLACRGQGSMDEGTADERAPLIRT
UniProt O08966: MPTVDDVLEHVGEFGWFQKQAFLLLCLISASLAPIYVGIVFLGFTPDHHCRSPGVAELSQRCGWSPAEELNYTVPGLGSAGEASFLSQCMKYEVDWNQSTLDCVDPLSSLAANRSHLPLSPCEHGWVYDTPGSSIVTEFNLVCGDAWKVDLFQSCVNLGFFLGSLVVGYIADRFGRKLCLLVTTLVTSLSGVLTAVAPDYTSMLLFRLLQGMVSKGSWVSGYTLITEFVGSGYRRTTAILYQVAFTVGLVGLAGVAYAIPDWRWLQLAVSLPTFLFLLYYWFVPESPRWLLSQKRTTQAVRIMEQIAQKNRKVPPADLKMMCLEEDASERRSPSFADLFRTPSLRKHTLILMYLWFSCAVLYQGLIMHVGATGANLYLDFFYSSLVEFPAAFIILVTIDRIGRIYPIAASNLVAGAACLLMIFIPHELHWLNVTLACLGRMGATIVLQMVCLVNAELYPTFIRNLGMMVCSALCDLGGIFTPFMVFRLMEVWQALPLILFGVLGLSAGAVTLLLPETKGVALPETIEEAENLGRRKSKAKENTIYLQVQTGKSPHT
UniProt P00186: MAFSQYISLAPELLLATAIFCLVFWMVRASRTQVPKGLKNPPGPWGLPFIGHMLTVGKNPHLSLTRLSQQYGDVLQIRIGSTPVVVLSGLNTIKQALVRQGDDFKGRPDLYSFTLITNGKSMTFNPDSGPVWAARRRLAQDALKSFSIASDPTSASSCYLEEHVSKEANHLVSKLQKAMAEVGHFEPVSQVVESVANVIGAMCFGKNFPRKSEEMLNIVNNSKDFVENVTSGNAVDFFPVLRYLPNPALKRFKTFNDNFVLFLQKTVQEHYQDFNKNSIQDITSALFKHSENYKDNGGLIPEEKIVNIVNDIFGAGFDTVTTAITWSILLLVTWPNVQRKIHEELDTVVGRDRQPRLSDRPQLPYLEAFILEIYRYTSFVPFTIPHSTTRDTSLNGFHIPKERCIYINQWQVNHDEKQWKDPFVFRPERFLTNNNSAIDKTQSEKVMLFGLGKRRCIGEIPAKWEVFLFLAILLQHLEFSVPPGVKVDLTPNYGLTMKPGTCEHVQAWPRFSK
UniProt O88393: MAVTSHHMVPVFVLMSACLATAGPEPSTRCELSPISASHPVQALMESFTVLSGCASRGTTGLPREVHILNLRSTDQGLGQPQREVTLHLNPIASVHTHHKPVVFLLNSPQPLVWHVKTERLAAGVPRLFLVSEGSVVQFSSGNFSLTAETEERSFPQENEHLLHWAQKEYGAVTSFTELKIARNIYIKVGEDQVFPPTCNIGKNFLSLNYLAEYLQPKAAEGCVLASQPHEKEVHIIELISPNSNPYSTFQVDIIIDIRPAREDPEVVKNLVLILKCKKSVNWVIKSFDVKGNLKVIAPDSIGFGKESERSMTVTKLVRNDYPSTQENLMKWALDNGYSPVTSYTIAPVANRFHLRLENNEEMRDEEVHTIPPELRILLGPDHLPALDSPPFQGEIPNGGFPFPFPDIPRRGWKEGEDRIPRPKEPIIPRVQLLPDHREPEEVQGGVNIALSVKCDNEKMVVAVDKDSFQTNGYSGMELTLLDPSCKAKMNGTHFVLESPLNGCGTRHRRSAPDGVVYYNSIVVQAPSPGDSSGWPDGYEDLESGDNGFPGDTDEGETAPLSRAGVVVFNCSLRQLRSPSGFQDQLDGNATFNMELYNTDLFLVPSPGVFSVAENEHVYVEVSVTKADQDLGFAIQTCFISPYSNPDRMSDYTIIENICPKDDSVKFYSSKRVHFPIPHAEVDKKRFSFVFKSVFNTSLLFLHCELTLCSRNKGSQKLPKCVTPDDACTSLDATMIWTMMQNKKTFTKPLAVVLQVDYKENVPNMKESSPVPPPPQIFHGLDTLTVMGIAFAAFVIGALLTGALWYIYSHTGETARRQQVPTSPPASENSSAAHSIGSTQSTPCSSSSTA
UniProt P00329: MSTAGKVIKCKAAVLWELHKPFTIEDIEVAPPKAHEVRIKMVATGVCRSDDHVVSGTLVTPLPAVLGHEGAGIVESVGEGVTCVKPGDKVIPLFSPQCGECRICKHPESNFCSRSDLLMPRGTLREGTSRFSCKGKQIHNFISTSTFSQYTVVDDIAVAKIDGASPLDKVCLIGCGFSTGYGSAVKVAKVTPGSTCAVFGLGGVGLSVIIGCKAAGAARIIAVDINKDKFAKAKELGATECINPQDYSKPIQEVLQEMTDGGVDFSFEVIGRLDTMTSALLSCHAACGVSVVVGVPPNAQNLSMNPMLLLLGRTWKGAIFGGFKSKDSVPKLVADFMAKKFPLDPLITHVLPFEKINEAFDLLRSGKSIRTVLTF
UniProt O70451: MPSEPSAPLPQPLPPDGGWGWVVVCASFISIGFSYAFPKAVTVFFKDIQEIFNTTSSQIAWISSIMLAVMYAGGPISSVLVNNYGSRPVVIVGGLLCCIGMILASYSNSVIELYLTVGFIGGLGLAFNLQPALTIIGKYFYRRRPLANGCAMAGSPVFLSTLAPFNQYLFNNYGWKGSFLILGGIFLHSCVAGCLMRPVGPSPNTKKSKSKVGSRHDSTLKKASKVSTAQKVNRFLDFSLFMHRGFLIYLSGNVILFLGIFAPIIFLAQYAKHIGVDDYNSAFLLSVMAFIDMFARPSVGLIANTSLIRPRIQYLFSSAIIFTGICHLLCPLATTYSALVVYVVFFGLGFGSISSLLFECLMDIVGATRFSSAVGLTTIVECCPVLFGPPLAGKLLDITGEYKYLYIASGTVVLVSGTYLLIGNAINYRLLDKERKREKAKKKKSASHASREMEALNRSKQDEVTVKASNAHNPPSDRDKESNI
UniProt O70279: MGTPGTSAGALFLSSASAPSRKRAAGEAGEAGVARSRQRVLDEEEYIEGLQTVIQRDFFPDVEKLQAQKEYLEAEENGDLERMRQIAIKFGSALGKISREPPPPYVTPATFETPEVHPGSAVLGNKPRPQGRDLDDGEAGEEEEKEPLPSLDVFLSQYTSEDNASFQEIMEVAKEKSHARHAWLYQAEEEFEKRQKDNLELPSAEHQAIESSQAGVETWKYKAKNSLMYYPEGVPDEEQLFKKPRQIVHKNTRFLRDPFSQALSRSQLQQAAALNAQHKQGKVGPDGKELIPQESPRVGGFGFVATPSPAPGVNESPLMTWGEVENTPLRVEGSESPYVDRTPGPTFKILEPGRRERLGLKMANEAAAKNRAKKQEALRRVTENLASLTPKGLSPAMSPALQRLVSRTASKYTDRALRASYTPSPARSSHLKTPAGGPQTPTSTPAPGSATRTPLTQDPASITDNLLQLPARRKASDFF
UniProt O54724: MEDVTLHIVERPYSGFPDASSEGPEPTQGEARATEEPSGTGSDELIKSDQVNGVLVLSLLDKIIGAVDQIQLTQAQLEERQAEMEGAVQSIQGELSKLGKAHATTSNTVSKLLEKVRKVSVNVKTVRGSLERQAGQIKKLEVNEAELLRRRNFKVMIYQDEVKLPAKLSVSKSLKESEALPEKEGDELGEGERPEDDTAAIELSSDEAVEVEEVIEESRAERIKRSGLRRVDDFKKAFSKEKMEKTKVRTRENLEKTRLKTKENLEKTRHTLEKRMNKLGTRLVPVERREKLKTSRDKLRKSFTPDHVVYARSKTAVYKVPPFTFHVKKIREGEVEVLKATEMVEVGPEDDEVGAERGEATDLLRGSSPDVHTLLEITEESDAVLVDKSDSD
UniProt O55003, whole entry: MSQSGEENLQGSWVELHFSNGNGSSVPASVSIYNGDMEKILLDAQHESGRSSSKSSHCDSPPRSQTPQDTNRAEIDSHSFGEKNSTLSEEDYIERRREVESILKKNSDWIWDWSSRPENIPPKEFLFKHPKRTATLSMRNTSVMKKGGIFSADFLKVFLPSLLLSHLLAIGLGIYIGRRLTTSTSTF
UniProt O70433: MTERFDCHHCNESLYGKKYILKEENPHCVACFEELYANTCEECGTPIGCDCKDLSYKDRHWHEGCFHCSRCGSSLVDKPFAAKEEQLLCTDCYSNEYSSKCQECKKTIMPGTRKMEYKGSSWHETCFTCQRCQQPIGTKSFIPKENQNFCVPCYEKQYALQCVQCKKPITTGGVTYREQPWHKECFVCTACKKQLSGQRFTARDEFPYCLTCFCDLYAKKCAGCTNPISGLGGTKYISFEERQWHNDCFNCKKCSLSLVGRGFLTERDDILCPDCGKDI
UniProt O35943: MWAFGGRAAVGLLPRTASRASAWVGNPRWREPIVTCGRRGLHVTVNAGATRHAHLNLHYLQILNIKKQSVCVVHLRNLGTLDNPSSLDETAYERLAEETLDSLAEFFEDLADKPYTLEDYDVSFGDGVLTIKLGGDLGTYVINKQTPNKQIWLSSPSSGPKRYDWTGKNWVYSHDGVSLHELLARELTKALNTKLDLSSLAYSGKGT
UniProt O35841: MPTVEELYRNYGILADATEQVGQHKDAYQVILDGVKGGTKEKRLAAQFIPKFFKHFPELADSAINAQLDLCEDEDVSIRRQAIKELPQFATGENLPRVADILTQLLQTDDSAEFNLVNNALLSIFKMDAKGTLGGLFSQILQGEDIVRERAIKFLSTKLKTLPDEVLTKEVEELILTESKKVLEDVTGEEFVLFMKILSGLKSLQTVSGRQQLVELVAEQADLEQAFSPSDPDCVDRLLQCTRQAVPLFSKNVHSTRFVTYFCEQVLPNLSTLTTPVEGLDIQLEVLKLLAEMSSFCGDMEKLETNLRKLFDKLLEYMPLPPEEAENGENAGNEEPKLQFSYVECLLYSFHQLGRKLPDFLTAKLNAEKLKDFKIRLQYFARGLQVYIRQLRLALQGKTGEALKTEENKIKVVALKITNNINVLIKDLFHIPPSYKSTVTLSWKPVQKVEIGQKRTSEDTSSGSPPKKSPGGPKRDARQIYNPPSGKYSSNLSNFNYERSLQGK
UniProt O88796: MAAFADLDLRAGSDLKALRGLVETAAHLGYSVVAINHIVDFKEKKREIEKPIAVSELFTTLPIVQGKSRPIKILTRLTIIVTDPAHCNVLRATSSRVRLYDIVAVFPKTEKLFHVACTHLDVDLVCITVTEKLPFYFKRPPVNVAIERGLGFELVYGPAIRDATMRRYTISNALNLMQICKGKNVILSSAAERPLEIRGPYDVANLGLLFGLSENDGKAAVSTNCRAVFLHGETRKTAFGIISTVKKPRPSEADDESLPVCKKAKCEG
UniProt O35660: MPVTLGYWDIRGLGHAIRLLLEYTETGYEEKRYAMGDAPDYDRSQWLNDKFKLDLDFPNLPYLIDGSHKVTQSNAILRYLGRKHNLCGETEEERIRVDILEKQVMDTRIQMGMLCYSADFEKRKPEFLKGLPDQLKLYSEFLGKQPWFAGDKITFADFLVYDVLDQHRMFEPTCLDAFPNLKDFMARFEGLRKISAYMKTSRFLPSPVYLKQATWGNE
UniProt O88668: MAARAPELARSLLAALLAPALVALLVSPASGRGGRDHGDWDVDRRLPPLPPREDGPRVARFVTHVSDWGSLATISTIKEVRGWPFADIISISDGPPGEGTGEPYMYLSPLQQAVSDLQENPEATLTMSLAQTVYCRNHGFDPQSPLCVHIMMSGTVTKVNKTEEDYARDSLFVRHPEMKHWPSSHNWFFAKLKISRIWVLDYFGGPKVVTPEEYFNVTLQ

Row | Target | log2 fold change of pooled soluble protein
1 | UniProt G3X9K3 | 0.106
2 | UniProt O88746 | 0.0415
3 | UniProt O35344 | -0.33
4 | UniProt O35609 | -0.0432
5 | UniProt O35857 | -0.0323
6 | UniProt O70493 | -0.359
7 | UniProt O54941 | -0.0413
8 | UniProt O88630 | 0.0881
9 | UniProt O35114 | 0.0373
10 | UniProt O55222 | 0.254
11 | UniProt O35744 | 0.0166
12 | UniProt O08966 | -0.0406
13 | UniProt O35988 | -0.0913
14 | UniProt P00186 | 0.774
15 | UniProt O88393 | 0.0586
16 | UniProt O35226 | -0.0669
17 | UniProt P00329 | 0.00166
18 | UniProt O70503 | -0.027
19 | UniProt O70451 | 0.131

Row | Target | log2 fold change of pooled soluble protein
20 | UniProt O70279 | 0.328
21 | UniProt O70228 | -0.205
22 | UniProt O35657 | 0.113
23 | UniProt O08529 | -0.104
24 | UniProt O54749 | 0.0308
25 | UniProt O54724 | -0.104
26 | UniProt O55003 | -0.247
27 | UniProt O70252 | 0.178
28 | UniProt O70433 | 0.0273
29 | UniProt O08692 | 0.155
30 | UniProt O35943 | 0.0974
31 | UniProt O35841 | 0.0954
32 | UniProt O88796 | 0.192
33 | UniProt O35660 | 0.00568
34 | UniProt O35930 | -0.102
35 | UniProt O88895 | -0.294
36 | UniProt O88668 | -0.0715
37 | UniProt P00405 | -0.154

Looked up above:
log2 fold change of pooled soluble protein with UniProt O88746 is entered as 0.0415
log2 fold change of pooled soluble protein with UniProt O54941 is entered as -0.0413
